Test results from patent US20250109210A1 (ABSCI, published 2025).
Substitutions are numbered along the chain they refer to. Results are given in words; binding and its absence hold for the method and conditions named. Some binding calls cover weakened binding; strength is not graded here.

By UniProt entry, the sequences of proteins in these tests, tags left out. Where a name states a change or a piece, a line headed by the entry shows the natural chain unless it says otherwise. Chains listed by the source or under a name are the forms on record and can include a tag or linker.
Cyno TL1A (G7PRK8, form named): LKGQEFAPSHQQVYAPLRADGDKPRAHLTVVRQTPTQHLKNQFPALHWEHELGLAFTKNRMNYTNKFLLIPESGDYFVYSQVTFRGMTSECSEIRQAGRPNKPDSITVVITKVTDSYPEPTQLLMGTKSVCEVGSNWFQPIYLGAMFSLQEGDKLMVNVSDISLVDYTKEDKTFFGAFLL

B1: Antibody 1 of Sequence Table 1, mAb format (antibody, human IgG1, kappa, N297A, V domains shown)
VH: QVQLQESGPGLVRPSQTLSLTCTVSGFDIQDTYMHWVRQRPGRGLEWMGRIEPAGGHTKYNPSLKSRVTITRDTSKNQVSLRLSSVTAADTAVYYCASSGGMPDLWGQGSLVTVSS
VL: DIQMTQSPSSLSASVGDRVTITCRASQGVEYMYWYQQKPGKAPKLLIYGASNLASGVPSRFSGSGSGTDFTFTISSLQPEDIATYYCQQWEGNPRTFGQGTKVEIKR
B2: Antibody 2 of Sequence Table 1, mAb format (antibody, human IgG1, kappa, N297A, V domains shown)
VH: B1 VH with F27L, I29P, Q30D, A97V, S98I, M102L, L105V
VL: B1 VL with Q27S, G28S, E30S, G49A, A50T
B3: Antibody 3 of Sequence Table 1, mAb format (antibody, human IgG1, kappa, N297A, V domains shown)
VH: B1 VH with A97V, S98R, M102L, L105A
VL: B1 VL with E30R
B4: Antibody 4 of Sequence Table 1, mAb format (antibody, human IgG1, kappa, N297A, V domains shown)
VH: B1 VH with I29M, Q30A, A97V, S98R, M102L, L105M
VL: B1 VL with Q27S, G28S, E30S
B5: Antibody 5 of Sequence Table 1, mAb format (antibody, human IgG1, kappa, N297A, V domains shown)
VH: B1 VH with I29M, G55S, A97V, S98R, M102L, L105V
VL: B1 VL with E30M
B6: Antibody 6 of Sequence Table 1, mAb format (antibody, human IgG1, kappa, N297A, V domains shown)
VH: B1 VH with I29M, Q30A, A97V, S98R, M102L, L105M
VL: B1 VL with G49S
B7: Antibody 7 of Sequence Table 1, mAb format (antibody, human IgG1, kappa, N297A, V domains shown)
VH: B1 VH with I29M, Q30G, G55A, A97V, S98R, M102L, L105I
VL: B1 VL
B8: Antibody 8 of Sequence Table 1, mAb format (antibody, human IgG1, kappa, N297A, V domains shown)
VH: B1 VH with I29M, D31S, A97V, S98R, M102L, L105V
VL: B1 VL with Q27S, G28S, E30S
B9: Antibody 9 of Sequence Table 1, mAb format (antibody, human IgG1, kappa, N297A, V domains shown)
VH: B1 VH with A97V, S98R, M102L, L105A
VL: B1 VL with E30G, G49S
B10: Antibody 10 of Sequence Table 1, mAb format (antibody, human IgG1, kappa, N297A, V domains shown)
VH: B1 VH with F27L, I29P, Q30D, A97V, S98I, M102L, L105V
VL: B1 VL
B11: Antibody 11 of Sequence Table 1, mAb format (antibody, human IgG1, kappa, N297A, V domains shown)
VH: B1 VH with I29M, Q30G, A97V, S98R, L105V
VL: B1 VL with G49S
B12: Antibody 12 of Sequence Table 1, mAb format (antibody, human IgG1, kappa, N297A, V domains shown)
VH: B1 VH with Q30T, A97V, S98R, M102L, L105V
VL: B1 VL with G49S
B13: Antibody 13 of Sequence Table 1, mAb format (antibody, human IgG1, kappa, N297A, V domains shown)
VH: B1 VH with I29Y, E52D, G55S, S98V, L105V
VL: B1 VL with G49A, A50T
B14: Antibody 15 of Sequence Table 1, mAb format (antibody, human IgG1, kappa, N297A, V domains shown)
VH: B1 VH with A97V, S98R, M102L, L105A
VL: B1 VL with V29I, E30Y
B15: Antibody 16 of Sequence Table 1, mAb format (antibody, human IgG1, kappa, N297A, V domains shown)
VH: B1 VH with I29M, D31S, A97V, S98R, M102L, L105V
VL: B1 VL
B16: Antibody 17 of Sequence Table 1, mAb format (antibody, human IgG1, kappa, N297A, V domains shown)
VH: B1 VH with I29M, Q30G, G55A, A97V, S98R, M102L, L105V
VL: B1 VL
B17: Antibody 18 of Sequence Table 1, mAb format (antibody, human IgG1, kappa, N297A, V domains shown)
VH: B1 VH with I29M, Q30G, A97V, S98R, L105V
VL: B1 VL with Q27S, G28S, E30S, G49Y
B18: Antibody 19 of Sequence Table 1, mAb format (antibody, human IgG1, kappa, N297A, V domains shown)
VH: B1 VH with Q30T, A97V, S98R, M102L, L105V
VL: B1 VL with G49Y
B19: Antibody 20 of Sequence Table 1, mAb format (antibody, human IgG1, kappa, N297A, V domains shown)
VH: B1 VH with G55S, S98R, L105M
VL: B1 VL with E30M
B20: Antibody 2 of Sequence Table 1, Fab format (Fab, V domains shown)
VH: B1 VH with F27L, I29P, Q30D, A97V, S98I, M102L, L105V
VL: DIQMTQSPSSLSASVGDRVTITCRASSSVSYMYWYQQKPGKAPKLLIYATSNLASGVPSRFSGSGSGTDFTFTISSLQPEDIATYYCQQWEGNPRTFGQGTKVEIK
B21: Antibody 3 of Sequence Table 1, Fab format (Fab, V domains shown)
VH: B1 VH with A97V, S98R, M102L, L105A
VL: B20 VL with S27Q, S28G, S30R, A49G, T50A
B22: Antibody 4 of Sequence Table 1, Fab format (Fab, V domains shown)
VH: B1 VH with I29M, Q30A, A97V, S98R, M102L, L105M
VL: B20 VL with A49G, T50A
B23: Antibody 5 of Sequence Table 1, Fab format (Fab, V domains shown)
VH: B1 VH with I29M, G55S, A97V, S98R, M102L, L105V
VL: B20 VL with S27Q, S28G, S30M, A49G, T50A
B24: Antibody 6 of Sequence Table 1, Fab format (Fab, V domains shown)
VH: B1 VH with I29M, Q30A, A97V, S98R, M102L, L105M
VL: B20 VL with S27Q, S28G, S30E, A49S, T50A
B25: Antibody 7 of Sequence Table 1, Fab format (Fab, V domains shown)
VH: B1 VH with I29M, Q30G, G55A, A97V, S98R, M102L, L105I
VL: B20 VL with S27Q, S28G, S30E, A49G, T50A
B26: Antibody 8 of Sequence Table 1, Fab format (Fab, V domains shown)
VH: B1 VH with I29M, D31S, A97V, S98R, M102L, L105V
VL: B20 VL with A49G, T50A
B27: Antibody 9 of Sequence Table 1, Fab format (Fab, V domains shown)
VH: B1 VH with A97V, S98R, M102L, L105A
VL: B20 VL with S27Q, S28G, S30G, A49S, T50A
B28: Antibody 10 of Sequence Table 1, Fab format (Fab, V domains shown)
VH: B1 VH with F27L, I29P, Q30D, A97V, S98I, M102L, L105V
VL: B20 VL with S27Q, S28G, S30E, A49G, T50A
B29: Antibody 11 of Sequence Table 1, Fab format (Fab, V domains shown)
VH: B1 VH with I29M, Q30G, A97V, S98R, L105V
VL: B20 VL with S27Q, S28G, S30E, A49S, T50A
B30: Antibody 12 of Sequence Table 1, Fab format (Fab, V domains shown)
VH: B1 VH with Q30T, A97V, S98R, M102L, L105V
VL: B20 VL with S27Q, S28G, S30E, A49S, T50A
B31: Antibody 13 of Sequence Table 1, Fab format (Fab, V domains shown)
VH: B1 VH with I29Y, E52D, G55S, S98V, L105V
VL: B20 VL with S27Q, S28G, S30E
B32: Antibody 15 of Sequence Table 1, Fab format (Fab, V domains shown)
VH: B1 VH with A97V, S98R, M102L, L105A
VL: B20 VL with S27Q, S28G, V29I, S30Y, A49G, T50A
B33: Antibody 16 of Sequence Table 1, Fab format (Fab, V domains shown)
VH: B1 VH with I29M, D31S, A97V, S98R, M102L, L105V
VL: B20 VL with S27Q, S28G, S30E, A49G, T50A
B34: Antibody 17 of Sequence Table 1, Fab format (Fab, V domains shown)
VH: B1 VH with I29M, Q30G, G55A, A97V, S98R, M102L, L105V
VL: B20 VL with S27Q, S28G, S30E, A49G, T50A
B35: Antibody 18 of Sequence Table 1, Fab format (Fab, V domains shown)
VH: B1 VH with I29M, Q30G, A97V, S98R, L105V
VL: B20 VL with A49Y, T50A
B36: Antibody 1 of Sequence Table 1, Fab format (Fab, V domains shown)
VH: B1 VH
VL: B20 VL with S27Q, S28G, S30E, A49G, T50A

Target: Cyno TL1A (cyno) (UniProt G7PRK8)
Assay: SPR, mAb format

binding, binds:
B1
B2
B3
B4
B5
B6
B7
B8
B9
B10
B11
B12
B13
B14
B15
B16
B17
B18
B19

Target: Cyno TL1A (cyno) (UniProt G7PRK8)
Assay: SPR, Fab format

binding, binds:
B20
B21
B22
B23
B24
B25
B26
B27
B28
B29
B30
B31
B32
B33
B34
B35
B36

Target: Human TL1A (human) (UniProt O95150)
Assay: SPR, Fab format

binding, binds:
B20
B21
B22
B23
B24
B25
B26
B27
B28
B29
B30
B31
B32
B33
B34
B35

Target: Cyno TL1A (cyno) (UniProt G7PRK8)
Assay: SPR

binding, binds:
B20
B21
B22
B23
B24
B25
B26
B27
B28
B29
B30
B31
B32
B33
B34
B35
B36

Target: T1, TL1A on HEK293 cells overexpressing TL1A (UniProt O95150)
T1 sequence (looked up): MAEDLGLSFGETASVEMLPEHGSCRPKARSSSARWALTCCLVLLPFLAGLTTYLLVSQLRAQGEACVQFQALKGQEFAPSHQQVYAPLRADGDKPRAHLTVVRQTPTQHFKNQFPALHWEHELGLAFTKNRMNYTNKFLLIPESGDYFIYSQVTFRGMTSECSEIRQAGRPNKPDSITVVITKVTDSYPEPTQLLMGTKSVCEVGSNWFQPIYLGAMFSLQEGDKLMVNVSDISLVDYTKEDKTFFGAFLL
Assay: flow cytometry, HEK293 cells overexpressing TL1A

binding, binds:
B1
B2
B3
B4
B5
B6
B7
B8
B9
B10
B11
B12
B13
B14
B15
B16
B17
B18
B19
